{"source": "patent US12576103B2", "about": "(priority 2020, dated 2026)", "origin": "cited, not measured here", "test_system": "SARS-COV-2", "conditions": "at 100 μM; incubation with cells; source Choy K-T et al. 2020, Sheahan et al. 2017; cited from earlier work", "note": "At least one structure is not confirmed: it was looked up by name or label, or the drawing left a doubt.", "data": [{"smiles": "CCC(CC)COC(=O)[C@H](C)N[P@](=O)(OC[C@H]1O[C@@](C#N)(c2ccc3c(N)ncnn23)[C@H](O)[C@@H]1O)Oc1ccccc1", "note": "[Remdesivir, remdesivir]", "values": [{"measurement": "Inhibition of Virus Infection", "value": 100, "unit": "% at 100 μM"}]}]}
